{
  "source": "patent US5545517A",
  "about": "“Selective metal ion detection using a photoluminescent indicator binding to a macromolecule-metal ion complex” (The United States of America as represented by the …, priority 1994, dated 1996)",
  "key": {"carbonic anhydrase [1]": {"tested_on": "carbonic anhydrase", "conditions": "values of Chen and Kernohan, cited from earlier work"}, "carbonic anhydrase [2]": {"tested_on": "carbonic anhydrase", "experiment": "fluorescence lifetimes of free and enzyme-bound dansylamide", "assay_type": "physicochemical", "conditions": "measured in this laboratory"}},
  "note": "Where two headings read alike, the source gives them in different places.",
  "data": [
    {"smiles": "CN(C)c1cccc2c(S(N)(=O)=O)cccc12", "note": "[dansylamide]", "values": [
      {"measurement": "fluorescence lifetime of bound dansylamide", "setting": "carbonic anhydrase [1]; bound", "result": 22.1, "unit": "nsec"},
      {"measurement": "fluorescence lifetime of free dansylamide", "setting": "carbonic anhydrase [1]; free", "result": 3.9, "unit": "nsec"},
      {"measurement": "fluorescence lifetime of bound dansylamide", "setting": "carbonic anhydrase [2]; bound to carbonic anhydrase", "result": "20.3±0.2", "unit": "nsec"},
      {"measurement": "fluorescence lifetime of free dansylamide", "setting": "carbonic anhydrase [2]; free in solution", "result": "3.4±0.5", "unit": "nsec"}
    ]}
  ]
}
